Laboratory results as given in publication PMC12884772, “Macrophagic Sclerostin Loop2‐ApoER2 Interaction Required by Sclerostin for Cardiovascular Protective Action” (Advanced Science, 2025).
These are yes or no findings as the source states them, for the method shown. In cells and extracts the contact can be indirect. Some entries that bind do so weakly or less than the wild type.

Amino acid sequences for entries named in this document (tags omitted). A change or cut given only in a name is not applied to a line headed by its entry. Chains listed by the source or under a name are the forms on record and can include a tag or linker. Residues count along the entry.
full-length His-sclerostin (not stated (recombinant human and mouse sclerostin used in the paper)) (Q99P68, residues 24-211): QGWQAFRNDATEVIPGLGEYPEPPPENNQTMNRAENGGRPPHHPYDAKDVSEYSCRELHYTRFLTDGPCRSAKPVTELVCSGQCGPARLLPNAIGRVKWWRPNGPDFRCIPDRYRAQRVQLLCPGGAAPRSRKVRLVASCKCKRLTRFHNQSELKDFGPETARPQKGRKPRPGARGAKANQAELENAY
SOST^loop2m (I94A, G95A, R96A, K98A, W99A) (Q99P68, form named): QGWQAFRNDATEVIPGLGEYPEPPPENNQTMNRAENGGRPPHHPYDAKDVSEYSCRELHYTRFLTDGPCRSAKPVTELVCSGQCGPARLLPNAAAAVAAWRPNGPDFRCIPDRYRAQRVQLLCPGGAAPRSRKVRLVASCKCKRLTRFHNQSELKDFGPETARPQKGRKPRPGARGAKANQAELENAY
SOST-S5 (V97A, K98A, W99A) (Q99P68, form named): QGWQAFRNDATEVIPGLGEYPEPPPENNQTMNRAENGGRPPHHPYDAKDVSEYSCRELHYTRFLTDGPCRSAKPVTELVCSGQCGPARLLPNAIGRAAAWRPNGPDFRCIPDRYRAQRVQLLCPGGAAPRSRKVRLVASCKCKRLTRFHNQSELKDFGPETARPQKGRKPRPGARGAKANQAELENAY
SOST-S4 (I94A, G95A, R96A) (Q99P68, form named): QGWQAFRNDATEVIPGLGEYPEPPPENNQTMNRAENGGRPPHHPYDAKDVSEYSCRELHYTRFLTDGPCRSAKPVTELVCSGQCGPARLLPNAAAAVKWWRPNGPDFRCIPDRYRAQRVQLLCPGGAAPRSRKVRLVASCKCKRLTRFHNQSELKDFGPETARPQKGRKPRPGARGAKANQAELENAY
UniProt Q924X6, residues 29-996: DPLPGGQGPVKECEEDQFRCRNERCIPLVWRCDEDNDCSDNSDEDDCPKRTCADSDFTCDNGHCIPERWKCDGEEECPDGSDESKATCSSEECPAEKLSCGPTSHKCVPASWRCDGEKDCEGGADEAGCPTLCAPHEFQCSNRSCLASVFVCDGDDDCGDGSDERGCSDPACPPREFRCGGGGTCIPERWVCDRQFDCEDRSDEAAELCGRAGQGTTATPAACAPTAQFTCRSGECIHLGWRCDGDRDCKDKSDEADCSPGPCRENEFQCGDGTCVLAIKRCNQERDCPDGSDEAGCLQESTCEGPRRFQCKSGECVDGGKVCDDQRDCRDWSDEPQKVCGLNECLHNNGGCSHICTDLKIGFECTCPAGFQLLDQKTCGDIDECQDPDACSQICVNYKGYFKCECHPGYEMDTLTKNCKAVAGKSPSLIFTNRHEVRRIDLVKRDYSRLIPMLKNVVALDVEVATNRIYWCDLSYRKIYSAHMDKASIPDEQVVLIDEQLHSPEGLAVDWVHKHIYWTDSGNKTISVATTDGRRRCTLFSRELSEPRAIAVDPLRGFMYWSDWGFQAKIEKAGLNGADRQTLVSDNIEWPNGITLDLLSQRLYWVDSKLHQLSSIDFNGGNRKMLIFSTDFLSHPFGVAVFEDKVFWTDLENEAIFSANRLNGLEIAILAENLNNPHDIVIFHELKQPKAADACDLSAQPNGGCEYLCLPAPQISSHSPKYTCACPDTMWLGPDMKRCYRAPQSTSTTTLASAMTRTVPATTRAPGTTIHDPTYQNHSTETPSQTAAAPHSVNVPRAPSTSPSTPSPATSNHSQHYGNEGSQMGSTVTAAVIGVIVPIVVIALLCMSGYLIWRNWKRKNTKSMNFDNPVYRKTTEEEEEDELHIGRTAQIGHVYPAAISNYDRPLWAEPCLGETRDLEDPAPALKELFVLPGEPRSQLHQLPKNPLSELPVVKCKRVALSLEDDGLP

Legend:
[1] = biological target: wild-type SOST (co-immunoprecipitation in RAW264.7) (UniProt Q99P68); assay: co-IP; in RAW264.7 macrophages; which partner was precipitated is not told
[2] = biological target: SOST^loop2m (I94A, G95A, R96A, K98A, W99A) (UniProt Q99P68); assay: as above
[3] = biological target: SOST-S5 (V97A, K98A, W99A) (UniProt Q99P68); assay: pull-down; His-tagged sclerostin or loop peptide (6 µg) on Ni-NTA magnetic agarose beads, incubated with 500 µL RAW264.7 cell lysate supernatant overnight at 4 °C; PBS, 20 mM imidazole, pH 8.0; washes with 0.005% Tween 20; blot with anti-FLAG and anti-His; only the target purified
[4] = biological target: SOST-S4 (I94A, G95A, R96A) (UniProt Q99P68); assay: as above
[5] = biological target: full-length His-sclerostin (not stated (recombinant human and mouse sclerostin used in the paper)) (UniProt Q99P68); assay: as above

| binding [1] | binding [2] | binding [3] | binding [4] | binding [5] | Substance |
| --- | --- | --- | --- | --- | --- |
| binds | no binding |  |  |  | ApoER2 (co-immunoprecipitation in RAW264.7) (from UniProt Q924X6 29-996) (receptor) |
|  |  | binds | binds | binds | FLAG-ApoER2 (from UniProt Q924X6 29-996) (receptor) |
